Results reported in PubChem BioAssay AID1347076 (National Center for Advancing Translational Sciences (NCATS), 2019).
About 13,000 (3.2%) of roughly 400,000 compounds were called active. The inconclusive results got no clear call from the source; some entries with a clear call stand among them for comparison. Calls come from the whole dose curve; as a rule, active = well fitted cell-killing curve with a large enough effect; inconclusive = small, poorly fitted or top-dose-only effect, or effect the other way; inactive = flat fitted curve, though single readings scatter. Potencies of inconclusive entries are doubtful fits and often do not repeat.

test: qHTS assay for MDR1-selective chemotherapeutics: Primary screen using the drug-selected MDR subline cells KB-V1; conditions: KB-V1 MDR cells viability, CellTiter-Glo, 72 h; activity change, negative = cytotoxicity: at 46.1 µM (top of the series); note: nearly all actives have a fitted effect of over 60% in size
Procedure, shortened: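 Luminescent ATP read-out (CellTiter-Glo, 10 min) measures survival of drug-selected KB-V1 MDR cells after 72 h, 37 degrees C compound exposure. Medium: phenol-red-free DMEM, 10% FBS. Values from fitted concentration-response curves.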
% is set by controls: 0 for no effect and ±100 for the full control effect; potency is the fitted concentration of half-maximal effect.

Row | Compound | Potency | activity change, negative = cytotoxicity
1 | CCc1cc[n+](-c2nc([O-])sc2C=O)cc1 | inconclusive: 7.31 µM [rising, partial curve] | –
2 | O=C(CSc1cccc[n+]1[O-])NCCCc1ccccc1 | inconclusive: 29.1 µM [rising, single point] | –
3 | Cc1nc(NC(=O)CSc2cc(C)c3ccccc3n2)c(Cl)cc1Cl | inconclusive: 29.1 µM [cytotoxic, single point] | –
4 | COc1ccc(/C=C/c2onc(C)c2S(=O)(=O)N2CCC(C(=O)N3CCCCCC3)CC2)cc1 | – | inactive: -7%
5 | COc1ccc(NC(=O)N(C)C[C@H]2OCc3cnnn3CCCC(=O)N([C@@H](C)CO)C[C@H]2C)cc1 | – | inactive: 2.03%
6 | CCCC[C@H]1COCCS(=O)(=O)N1Cc1cccc(F)c1 | – | inconclusive: -14.6%
7 | N#CC(=C=[N-])C1=C(C#N)C(c2ccccc2F)C([n+]2ccccc2)C(O)(C2CC2)N1 (centres undefined) | – | inactive: 13.2%
8 | COc1ccc(-c2csc(NC(=S)NC(=O)/C=C/c3ccco3)n2)cc1Br | active: 4.11 µM | –
9 | O=C(O)c1cccc(NC(=S)N/N=C/c2ccccc2OCc2ccc(Br)cc2)c1 | – | inactive: -0.638%
10 | COc1ccc(-c2noc(CSc3nc(-c4ccccc4)cc(=O)[nH]3)n2)cc1OC | – | inactive: -12.6%
11 | COc1cc(/C=C/C(=O)OCC(=O)NC2CCS(=O)(=O)C2)ccc1O (centres undefined) | – | inactive: -4.95%
12 | Cc1cc(C)nc(NC(=O)c2c(-c3ccccc3Cl)noc2C)c1 | active: 7.31 µM | –
13 | CCC(NC(=O)N(Cc1ccccc1)Cc1ccc2c(c1)OCO2)(C(F)(F)F)C(F)(F)F | inconclusive: 23.1 µM [cytotoxic, single point] | –
14 | Cn1cccc1-c1cc2n(n1)CCC(=O)N2CC(=O)Nc1ccc(F)cc1Cl | – | inactive: 6.89%
15 | COC(=O)c1c(NC(=O)c2ccccc2)sc(C(N)=O)c1C | – | inactive: -7.27%
16 | CC(NC(=O)C(C)(C)C)C(c1cccs1)N1CCN(Cc2ccccc2)CC1 (centres undefined) | inconclusive: 10.3 µM [cytotoxic, partial curve, poor fit] | –
17 | COCCCNc1nc2c(-c3cccc(Br)c3)nnn2c2ccccc12 | – | inactive: -2.4%
18 | CCOc1ccc(CN2CCCC(N3CCN(c4ccc(OC)cc4)CC3)C2)cc1 (centres undefined) | inconclusive: 2.06 µM [cytotoxic, full curve, poor fit] | –
19 | Cn1nc(-c2ccccc2F)c2cc(C(=O)N3CCN(c4ccccc4F)CC3)sc21 | active: 5.17 µM | –
20 | CCOC(=O)C1(Cc2cccc(F)c2)CCN(C(=O)c2cscn2)CC1 | inconclusive: 23.1 µM [cytotoxic, partial curve, poor fit] | –
21 | O=C1C(=C(c2ccccc2)N2CCOCC2)Cc2ccccc21 | inconclusive: 23.1 µM [cytotoxic, single point] | –
22 | Cn1c(=O)c2c(nc(Cl)n2Cc2ccc(Cl)c(Cl)c2)n(C)c1=O | active: 16.4 µM | –
23 | CC1(C)NC(=O)N(CCCCOc2ccc(Cl)cc2C=O)C1=O | – | inactive: 0.411%
24 | Cc1cc(C)c(C(=O)c2ccc(C(=O)N3CCCCC3)cc2)c(C)c1 | inconclusive: 20.6 µM [cytotoxic, single point] | –
25 | COc1cc(S(=O)(=O)Nc2ccccc2C)ccc1NC(=O)c1ccncc1 | inconclusive: 1.64 µM [cytotoxic, partial curve, poor fit] | –

Row | Compound | Potency | activity change, negative = cytotoxicity
26 | COC(=O)C(=Cc1ccncc1)c1cccc2ccccc12 | inconclusive: 29.1 µM [cytotoxic, single point] | –
27 | Cc1cc(-c2nnc(CCC(=O)N(C)Cc3cccc4ccccc34)o2)no1 | – | inconclusive: -53.3%
28 | CC(=O)NC(CC(C)C)C(=O)NC(CO)C(=O)NC(CCC(=O)O)C(=O)NC(C)C(=O)NC(CC(C)C)C(N)=O (centres undefined) | – | inactive: -2.86%
29 | CCN(CC)C(=O)Cn1cc(C(=O)C(=O)Nc2ccc3c(c2)OCO3)c2ccccc21 | – | inactive: 9.53%
30 | Nc1c(C(=O)NCC2CCCO2)sc2nc3c(c(-c4ccco4)c12)CC/C3=C\c1ccco1 (centres undefined) | – | inactive: 0.449%
31 | CCOC(=O)C1(Cc2ccccc2C)CCCN(C(=O)c2ccc3nccnc3c2)C1 (centres undefined) | inconclusive: 9.2 µM [cytotoxic, partial curve] | –
32 | O=C(CSCc1ccc(Br)cc1)NCc1ccccn1 | – | inactive: -2.52%
33 | Cc1ccc(S(=O)(=O)N(CC(O)Cn2c3ccccc3c3ccccc32)c2cccc(C(=O)NCCO)c2)cc1 (centres undefined) | – | inactive: -3.67%
34 | COc1ccc(-c2cnc3c(NC(C)=O)cc(-c4ccc(C(=O)N5CCOCC5)cc4)cn23)cc1OC | – | inactive: 3.12%
35 | Cn1c(-c2ccc(C(C)(C)C)cc2)n[nH]c1=S | inconclusive: 29.1 µM [cytotoxic, single point] | –
36 | CCOc1ccc(C2NC(=O)CCC2[N+](=O)[O-])cc1 (centres undefined) | inconclusive: 16.4 µM [rising, single point] | –
37 | O=C(Nc1ccc(Cl)cc1)C1=Cc2cc(Cl)ccc2OC1 | inconclusive: 32.6 µM [cytotoxic, single point] | –
38 | CCOC(=O)c1nnn(-c2nonc2N)c1-c1ccccc1 | inconclusive: 23.1 µM [cytotoxic, single point] | –
39 | CCOc1ncccc1C(=O)NCC(c1ccco1)N1CCCCC1 (centres undefined) | inconclusive: 9.2 µM [cytotoxic, partial curve] | –
40 | COc1ccccc1NC(=O)N1CCCC1 | – | inconclusive: -49.1%
41 | COc1cc(/C=N/NC(=O)c2ccncc2)ccc1OC(=O)c1cc(OC)c(OC)c(OC)c1 | inconclusive: 7.31 µM [rising, partial curve, poor fit] | –
42 | CC1(C)NC(=S)NC1=S | – | inactive: 21.8%
43 | Cc1ccc(NC(=O)Cc2n[nH]c(=O)c3ccccc23)cc1S(=O)(=O)N1CCCCCC1 | inconclusive: 29.1 µM [cytotoxic, single point] | –
44 | CCC(=O)Nc1cc(C(=O)O)ccc1S(=O)(=O)c1ccc(C)cc1 | – | inactive: 0%
45 | OCCC1CN(Cc2nc3ccccc3s2)CCN1C1CCCC1 (centres undefined) | – | inactive: 0.377%
46 | CC1(c2ccc(OC(F)F)cc2)NC(=O)N(CC(=O)Nc2cccnc2Cl)C1=O (centres undefined) | – | inactive: -11.9%
47 | COc1ccc(CCNc2nc(-c3ccc(NC(C)=O)cc3)cs2)cc1OC | inconclusive: 7.31 µM [cytotoxic, partial curve] | –
48 | N/C(=N\O)c1ccc(N2CCN(c3ncccc3C(F)(F)F)CC2)nc1 | inconclusive: 23.1 µM [cytotoxic, partial curve, poor fit] | –
49 | COc1ccc(CC(=O)Cc2ccc(OC)c(OC)c2)cc1OC | – | inactive: -15%
50 | C/C(=N\NC(=O)c1csc(C)c1C)c1ccc(C)s1 | inconclusive: 11.6 µM [cytotoxic, partial curve] | –

Row | Compound | Potency | activity change, negative = cytotoxicity
51 | O=C(CSc1ccc2c(c1)OCCO2)Nc1ccc(Br)cn1 | inconclusive: 29.1 µM [cytotoxic, single point] | –
52 | Cc1ccc2c(c1)cc(CN(Cc1cccnc1)C(=O)NCc1ccccc1)c1nnnn12 | active: 2.59 µM | –
53 | CCN(CC(=O)NCc1cccs1)S(=O)(=O)c1ccc([N+](=O)[O-])cc1 | inconclusive: 23.1 µM [cytotoxic, partial curve, poor fit] | –
54 | CCOC(=O)C[n+]1c(C)ccc2c1CCC2 | inconclusive: 29.1 µM [rising, single point] | –
55 | CCOC(=O)C1CCN(CC(=O)NC(=O)NC2CCCCC2)CC1 | inconclusive: 16.4 µM [cytotoxic, partial curve, poor fit] | –
56 | O=C(NCCc1ccccc1)C(=O)c1c(-c2ccccc2)cc2ccccn12 | active: 20.6 µM | –
57 | Cc1ccc(C2=NN(C(=O)CCCC(=O)O)C(c3ccc4c(c3)OCO4)C2)cc1 (centres undefined) | inconclusive: 29.1 µM [rising, single point] | –
58 | CCOC(=O)/C(=C/c1c(C)n(C)c2ccc([N+](=O)[O-])cc12)C(C)=O | inconclusive: 18.4 µM [cytotoxic, single point] | –
59 | O=C(COc1ccc(Cl)cc1)NNC(=O)CSc1nncs1 | – | inactive: 1.34%
60 | Cc1ccc(OCC(=O)N2CCN(C(=O)CCC3CCCC3)CC2)cc1 | inconclusive: 18.4 µM [cytotoxic, single point] | –
61 | Clc1ccc(OCc2cnc(Cl)s2)cc1 | inconclusive: 32.6 µM [rising, single point] | –
62 | CCCC(c1nnnn1CS(=O)(=O)c1ccc(C)cc1)N1CCN(c2ccccc2)CC1 (centres undefined) | inconclusive: 25.9 µM [cytotoxic, single point] | –
63 | O=C(c1ccc(-c2ccccc2)cc1)N1CCCC1 | inconclusive: 16.4 µM [cytotoxic, single point] | –
64 | CC(=O)C1=C(C)NC(SCC(=O)c2ccc(F)cc2)=C(C#N)C1c1ccco1 (centres undefined) | – | inactive: 10%
65 | O=[N+]([O-])c1ccc2c(c1)/C(=C/c1ccc(C=S)cc1)C=C2 | – | inactive: 0%
66 | CCN(CCO)Cc1csc2cccc(Br)c12 | inconclusive: 0.0073 µM [cytotoxic, full curve, poor fit] | –
67 | CCOC(=O)c1c(NC(=O)CCCOc2ccccc2C)sc2c1CCC(C)C2 (centres undefined) | – | inactive: -3.72%
68 | COc1ccc(S(=O)(=O)N2CCCCCC2)cc1C(=O)N1CCCCC1 | inconclusive: 20.6 µM [cytotoxic, single point] | –
69 | COc1cc2c(=O)n(Cc3ccccc3)c(=O)n(CC(=O)NCCc3ccccc3)c2cc1OC | inconclusive: 1.3 µM [cytotoxic, full curve] | –
70 | COC(=O)[C@@]1(Cc2ccccc2)[C@H]2C(=O)N(C)C(=O)[C@H]2[C@H]2CN=C(SCc3ccccc3)N21 | – | inactive: -5.54%
71 | CCCC[C@@H]1CNC(=S)N1CCCC | – | inactive: 10.6%
72 | CCNC(=S)Nc1ccc(N(c2ccccc2)C(C)C)cc1 | active: 13 µM | –
73 | CC(C)C1C(=O)N(Cc2cn(CC3CCCCC3)nn2)CCS(=O)(=O)N1Cc1ccc(-c2ccc(Cl)cc2)cc1 (centres undefined) | inconclusive: 29.1 µM [cytotoxic, single point] | –
74 | C=CCOc1nc2c(c(=O)n(C)c(=O)n2C)n1Cc1ccccc1 | active: 8.2 µM | –
